Data reported in the supplement of paper PMC6411743.
± gives the standard deviation of the averaged measurements. Only a part is listed here, and it is no random draw. Most values lie at the level of the controls, where differences are scatter.

Protein sequences, listed by entry. Tags and fused reporters are not part of them. Lines headed by an entry give the natural chain unless they say otherwise; changes in a name come on top.
UniProt O15126: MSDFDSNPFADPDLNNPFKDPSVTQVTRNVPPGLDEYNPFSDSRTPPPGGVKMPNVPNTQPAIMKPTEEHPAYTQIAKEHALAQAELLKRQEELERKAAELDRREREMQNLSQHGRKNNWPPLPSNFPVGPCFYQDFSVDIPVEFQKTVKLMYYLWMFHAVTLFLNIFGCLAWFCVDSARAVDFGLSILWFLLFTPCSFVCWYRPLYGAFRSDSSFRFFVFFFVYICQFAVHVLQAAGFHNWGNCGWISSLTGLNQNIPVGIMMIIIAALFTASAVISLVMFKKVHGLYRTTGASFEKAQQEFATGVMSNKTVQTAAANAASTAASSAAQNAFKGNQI
UniProt O43290: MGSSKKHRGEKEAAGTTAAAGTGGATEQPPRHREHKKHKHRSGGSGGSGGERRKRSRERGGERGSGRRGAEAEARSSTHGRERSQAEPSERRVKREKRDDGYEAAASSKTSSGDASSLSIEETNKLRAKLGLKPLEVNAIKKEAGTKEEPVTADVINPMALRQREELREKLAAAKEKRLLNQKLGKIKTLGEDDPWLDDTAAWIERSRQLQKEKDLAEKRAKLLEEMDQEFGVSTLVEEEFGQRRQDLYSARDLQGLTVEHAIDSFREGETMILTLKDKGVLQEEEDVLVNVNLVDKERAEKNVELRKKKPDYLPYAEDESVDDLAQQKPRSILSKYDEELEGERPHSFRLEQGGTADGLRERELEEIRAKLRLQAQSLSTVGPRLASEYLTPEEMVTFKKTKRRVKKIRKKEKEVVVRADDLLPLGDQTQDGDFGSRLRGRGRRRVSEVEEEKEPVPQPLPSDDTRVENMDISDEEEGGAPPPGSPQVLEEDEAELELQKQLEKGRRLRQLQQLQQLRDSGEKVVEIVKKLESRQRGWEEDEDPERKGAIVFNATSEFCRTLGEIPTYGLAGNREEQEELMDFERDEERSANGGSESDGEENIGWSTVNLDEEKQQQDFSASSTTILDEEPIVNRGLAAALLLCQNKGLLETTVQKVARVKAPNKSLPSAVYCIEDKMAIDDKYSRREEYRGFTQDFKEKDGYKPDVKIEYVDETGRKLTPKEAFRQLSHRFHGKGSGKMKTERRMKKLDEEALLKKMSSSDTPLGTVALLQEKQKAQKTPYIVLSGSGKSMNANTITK
UniProt O15371, whole entry: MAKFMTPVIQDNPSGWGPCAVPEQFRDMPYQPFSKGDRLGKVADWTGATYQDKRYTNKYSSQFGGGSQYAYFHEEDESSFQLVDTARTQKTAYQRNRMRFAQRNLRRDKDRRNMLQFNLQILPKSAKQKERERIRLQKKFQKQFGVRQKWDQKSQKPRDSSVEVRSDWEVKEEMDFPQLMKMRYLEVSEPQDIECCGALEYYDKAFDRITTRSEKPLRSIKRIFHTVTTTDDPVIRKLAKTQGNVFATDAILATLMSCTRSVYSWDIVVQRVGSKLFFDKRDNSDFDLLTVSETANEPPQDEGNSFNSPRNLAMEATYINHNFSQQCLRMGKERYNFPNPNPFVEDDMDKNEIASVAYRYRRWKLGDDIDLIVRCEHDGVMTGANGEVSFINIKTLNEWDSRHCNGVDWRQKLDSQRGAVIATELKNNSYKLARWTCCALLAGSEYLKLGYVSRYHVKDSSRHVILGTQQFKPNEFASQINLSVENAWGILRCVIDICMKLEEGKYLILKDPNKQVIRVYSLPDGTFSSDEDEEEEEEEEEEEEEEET
UniProt O43402: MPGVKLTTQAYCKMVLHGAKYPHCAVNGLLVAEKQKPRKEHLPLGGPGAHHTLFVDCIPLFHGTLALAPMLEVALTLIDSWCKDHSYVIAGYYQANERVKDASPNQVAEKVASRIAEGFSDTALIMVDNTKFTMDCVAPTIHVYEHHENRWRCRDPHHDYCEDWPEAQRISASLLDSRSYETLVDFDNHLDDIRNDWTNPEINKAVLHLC
UniProt O43148, whole entry: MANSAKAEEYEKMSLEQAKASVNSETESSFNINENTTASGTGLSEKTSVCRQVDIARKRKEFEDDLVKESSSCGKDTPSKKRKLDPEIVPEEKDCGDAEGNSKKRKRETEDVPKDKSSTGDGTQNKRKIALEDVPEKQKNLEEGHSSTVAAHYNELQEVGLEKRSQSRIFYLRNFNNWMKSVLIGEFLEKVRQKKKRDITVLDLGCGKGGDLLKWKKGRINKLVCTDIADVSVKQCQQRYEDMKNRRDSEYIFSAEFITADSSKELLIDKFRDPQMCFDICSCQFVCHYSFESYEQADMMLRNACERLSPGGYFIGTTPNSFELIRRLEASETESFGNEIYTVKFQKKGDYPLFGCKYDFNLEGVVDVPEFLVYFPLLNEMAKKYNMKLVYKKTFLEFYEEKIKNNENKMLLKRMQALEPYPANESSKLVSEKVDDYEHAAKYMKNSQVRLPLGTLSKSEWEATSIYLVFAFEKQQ
UniProt O15212, whole entry: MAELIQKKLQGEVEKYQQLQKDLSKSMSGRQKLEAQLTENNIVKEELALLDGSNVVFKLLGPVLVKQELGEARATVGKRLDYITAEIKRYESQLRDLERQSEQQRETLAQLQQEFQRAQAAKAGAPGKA
UniProt O14773: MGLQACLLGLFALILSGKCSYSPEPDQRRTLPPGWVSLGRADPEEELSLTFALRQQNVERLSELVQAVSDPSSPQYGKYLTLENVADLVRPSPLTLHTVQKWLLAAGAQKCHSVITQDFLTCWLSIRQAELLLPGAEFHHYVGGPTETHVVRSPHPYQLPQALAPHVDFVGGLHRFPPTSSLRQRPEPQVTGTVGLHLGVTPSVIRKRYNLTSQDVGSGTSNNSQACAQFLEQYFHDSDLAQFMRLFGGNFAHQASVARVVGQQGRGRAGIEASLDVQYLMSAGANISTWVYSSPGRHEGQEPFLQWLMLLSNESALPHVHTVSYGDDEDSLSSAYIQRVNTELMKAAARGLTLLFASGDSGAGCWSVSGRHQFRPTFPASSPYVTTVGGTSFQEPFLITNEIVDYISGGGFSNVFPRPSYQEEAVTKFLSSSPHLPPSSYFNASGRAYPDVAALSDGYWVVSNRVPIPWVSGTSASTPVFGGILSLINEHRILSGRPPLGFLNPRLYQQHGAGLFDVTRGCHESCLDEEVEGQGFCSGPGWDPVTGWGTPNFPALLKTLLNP
UniProt O15541: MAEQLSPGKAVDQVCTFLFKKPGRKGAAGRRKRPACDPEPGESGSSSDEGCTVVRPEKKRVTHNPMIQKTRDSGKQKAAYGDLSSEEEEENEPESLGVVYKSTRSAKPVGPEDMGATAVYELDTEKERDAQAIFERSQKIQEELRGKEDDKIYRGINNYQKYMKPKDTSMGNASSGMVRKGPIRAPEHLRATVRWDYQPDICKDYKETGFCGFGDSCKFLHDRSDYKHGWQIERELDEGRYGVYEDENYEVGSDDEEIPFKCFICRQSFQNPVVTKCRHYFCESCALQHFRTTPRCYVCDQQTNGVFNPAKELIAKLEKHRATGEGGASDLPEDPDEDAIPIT
UniProt O43736: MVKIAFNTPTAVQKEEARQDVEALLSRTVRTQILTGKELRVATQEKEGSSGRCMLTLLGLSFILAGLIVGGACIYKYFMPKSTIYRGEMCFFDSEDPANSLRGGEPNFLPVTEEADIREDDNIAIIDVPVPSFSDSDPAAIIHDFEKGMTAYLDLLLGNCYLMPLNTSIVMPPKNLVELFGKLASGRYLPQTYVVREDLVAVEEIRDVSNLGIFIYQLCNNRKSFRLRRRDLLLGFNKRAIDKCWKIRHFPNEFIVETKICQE
UniProt O14732: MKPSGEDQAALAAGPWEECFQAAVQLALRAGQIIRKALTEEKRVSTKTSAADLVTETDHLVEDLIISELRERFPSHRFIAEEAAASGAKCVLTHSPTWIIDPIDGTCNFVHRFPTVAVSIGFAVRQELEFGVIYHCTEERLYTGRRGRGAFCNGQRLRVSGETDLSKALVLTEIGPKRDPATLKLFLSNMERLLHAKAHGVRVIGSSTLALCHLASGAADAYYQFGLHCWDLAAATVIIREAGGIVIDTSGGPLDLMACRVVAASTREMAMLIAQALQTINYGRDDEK
UniProt O00754: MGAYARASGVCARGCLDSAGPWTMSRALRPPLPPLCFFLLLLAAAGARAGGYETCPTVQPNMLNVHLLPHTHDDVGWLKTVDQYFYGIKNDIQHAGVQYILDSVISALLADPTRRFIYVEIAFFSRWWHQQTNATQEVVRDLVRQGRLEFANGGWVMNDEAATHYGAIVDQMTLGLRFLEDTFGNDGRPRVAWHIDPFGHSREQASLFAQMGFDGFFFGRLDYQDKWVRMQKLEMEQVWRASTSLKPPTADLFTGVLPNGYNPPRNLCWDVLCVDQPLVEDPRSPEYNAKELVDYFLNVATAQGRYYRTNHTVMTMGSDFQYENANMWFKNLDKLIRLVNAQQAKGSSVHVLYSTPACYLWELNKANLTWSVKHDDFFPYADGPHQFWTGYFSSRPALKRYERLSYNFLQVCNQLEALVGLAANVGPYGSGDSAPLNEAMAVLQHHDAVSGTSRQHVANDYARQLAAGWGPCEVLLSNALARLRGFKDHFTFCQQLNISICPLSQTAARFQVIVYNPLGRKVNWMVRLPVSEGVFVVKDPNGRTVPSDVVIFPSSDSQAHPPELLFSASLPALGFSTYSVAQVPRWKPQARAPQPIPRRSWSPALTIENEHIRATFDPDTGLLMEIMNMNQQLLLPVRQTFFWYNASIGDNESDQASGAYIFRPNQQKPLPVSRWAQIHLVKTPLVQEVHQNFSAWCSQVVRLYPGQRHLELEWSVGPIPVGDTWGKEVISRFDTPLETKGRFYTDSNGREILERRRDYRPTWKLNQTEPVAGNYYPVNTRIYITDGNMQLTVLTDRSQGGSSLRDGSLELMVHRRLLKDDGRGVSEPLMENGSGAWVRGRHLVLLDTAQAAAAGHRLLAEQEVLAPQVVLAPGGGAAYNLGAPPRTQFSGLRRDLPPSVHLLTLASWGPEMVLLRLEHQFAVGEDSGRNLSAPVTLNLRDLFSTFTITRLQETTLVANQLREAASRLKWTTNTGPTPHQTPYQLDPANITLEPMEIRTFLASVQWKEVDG
UniProt O14802: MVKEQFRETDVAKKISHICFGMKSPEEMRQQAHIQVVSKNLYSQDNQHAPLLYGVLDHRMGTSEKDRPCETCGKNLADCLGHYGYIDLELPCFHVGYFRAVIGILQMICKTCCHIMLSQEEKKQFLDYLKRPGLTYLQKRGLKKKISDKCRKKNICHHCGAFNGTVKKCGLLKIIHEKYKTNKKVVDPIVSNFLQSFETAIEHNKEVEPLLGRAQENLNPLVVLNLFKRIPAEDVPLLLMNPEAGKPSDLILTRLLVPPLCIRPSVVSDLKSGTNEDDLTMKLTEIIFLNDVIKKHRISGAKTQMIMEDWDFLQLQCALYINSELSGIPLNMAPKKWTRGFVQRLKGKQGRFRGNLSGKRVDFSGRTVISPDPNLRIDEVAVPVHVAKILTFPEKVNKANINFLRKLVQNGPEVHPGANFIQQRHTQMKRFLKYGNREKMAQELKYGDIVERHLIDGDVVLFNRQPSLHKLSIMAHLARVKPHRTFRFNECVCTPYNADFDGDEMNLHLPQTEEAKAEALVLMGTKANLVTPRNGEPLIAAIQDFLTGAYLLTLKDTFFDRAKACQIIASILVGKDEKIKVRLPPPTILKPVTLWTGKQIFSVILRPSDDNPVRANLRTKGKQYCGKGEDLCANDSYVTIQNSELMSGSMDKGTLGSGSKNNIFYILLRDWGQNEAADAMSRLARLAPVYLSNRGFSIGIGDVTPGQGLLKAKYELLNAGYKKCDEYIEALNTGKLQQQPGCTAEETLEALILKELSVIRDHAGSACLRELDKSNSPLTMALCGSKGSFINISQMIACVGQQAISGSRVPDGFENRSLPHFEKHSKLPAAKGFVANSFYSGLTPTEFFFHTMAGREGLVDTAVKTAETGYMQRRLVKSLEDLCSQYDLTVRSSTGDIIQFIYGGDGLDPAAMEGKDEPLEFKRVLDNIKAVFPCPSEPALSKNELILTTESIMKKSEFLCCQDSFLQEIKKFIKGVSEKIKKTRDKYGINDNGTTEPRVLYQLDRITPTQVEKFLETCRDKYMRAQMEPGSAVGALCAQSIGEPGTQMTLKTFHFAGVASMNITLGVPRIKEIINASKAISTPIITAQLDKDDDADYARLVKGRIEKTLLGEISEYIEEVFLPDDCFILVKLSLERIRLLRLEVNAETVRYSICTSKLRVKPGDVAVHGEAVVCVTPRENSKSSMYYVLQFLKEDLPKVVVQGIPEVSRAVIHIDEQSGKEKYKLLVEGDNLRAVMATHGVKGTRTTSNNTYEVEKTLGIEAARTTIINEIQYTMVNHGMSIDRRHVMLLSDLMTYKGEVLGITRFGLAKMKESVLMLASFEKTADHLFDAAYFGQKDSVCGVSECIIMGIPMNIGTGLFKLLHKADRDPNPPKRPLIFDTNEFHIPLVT

Compound: Nc1ncnc2c1ncn2[C@@H]1O[C@H](COP(=O)(O)OP(=O)(O)NP(=O)(O)O)[C@@H](O)[C@H]1O [adenylyl imidodiphosphate]
Assay: NP40-soluble protein abundance relative to vehicle (solubility fold change) (ratio); higher = more soluble protein in presence of AMP-PNP
In short: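 Jurkat crude lysate prepared with a Dounce homogeniser was treated at eight concentrations spanning 0.1 to 10 mM, 10 min at room temperature then 3 min at 37 °C. Solubilisation with 0.8% NP40 and benzonase and ultracentrifugation preceded TMT labelling of the supernatant for LC-MS/MS. Fold change against the detergent-processed vehicle was determined per replicate from vsn-normalised intensities, across three independent experiments.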

Target | NP40-soluble protein abundance (concentration: 0.1mM) | NP40-soluble protein abundance (concentration: 0.5mM)
UniProt O43291 | 0.987 ± 0.016 | 1.01 ± 0.013
SCAMP1 (UniProt O15126) | 0.991 ± 0.019 | 1 ± 0.041
SART1 (UniProt O43290) | 1.03 ± 0.026 | 1.05 ± 0.052
UniProt O15371 and related entries | 1.03 ± 0.027 | 1.03 ± 0.028
UniProt O43150 and related entries | 0.989 ± 0.031 | 0.974 ± 0.021
M0QYA8 and related entries (UniProt Q8IV63) | 1.05 ± 0.045 | 1.07 ± 0.019
M0R2Z9 and related entries (UniProt Q8IX01) | 1.03 ± 0.043 | 1.03 ± 0.039
CBX4 (UniProt O00257) | 0.9943 ± 0.0042 | 0.986 ± 0.011
UniProt O14523 and related entries | 0.978 ± 0.042 | 0.986 ± 0.019
UniProt O43402 and related entries | 1.01 ± 0.014 | 0.981 ± 0.027
K7EJH8 and related entries (UniProt O43707) | 0.9865 ± 0.0086 | 1.04 ± 0.032
UniProt O43148 and related entries | 0.9841 ± 0.0061 | 1 ± 0.026
PFDN6 (UniProt O15212) | 0.969 ± 0.04 | 0.955 ± 0.035
UniProt O14773 and related entries | 1.04 ± 0.024 | 1.01 ± 0.043
RNF113A (UniProt O15541) | 0.964 ± 0.03 | 0.9848 ± 0.0038
UniProt O43736 and related entries | 1.03 ± 0.088 | 1 ± 0.085
UniProt O00462 and related entries | 1.01 ± 0.013 | 1.02 ± 0.027
UniProt O15066 and related entries | 1.02 ± 0.022 | 1.03 ± 0.017
UniProt O00442 | 1.04 ± 0.013 | 1.01 ± 0.019
UniProt O14732 and related entries | 1.02 ± 0.044 | 0.992 ± 0.065
UniProt O00754 and related entries | 0.975 ± 0.04 | 0.974 ± 0.032
POLR3A (UniProt O14802) | 1.02 ± 0.035 | 0.975 ± 0.06
K7EKE6 and related entries (UniProt P36776) | 0.997 ± 0.015 | 0.967 ± 0.044

A different layout for part of the listing above:

| Target | NP40-soluble protein abundance (concentration: 0.1mM) | NP40-soluble protein abundance (concentration: 0.5mM) |
| --- | --- | --- |
| UniProt O43291 | 0.987 ± 0.016 | 1.01 ± 0.013 |
| UniProt O00462 and related entries | 1.01 ± 0.013 | 1.02 ± 0.027 |
